Data as given in paper PMC3349726.
Numbering of substitutions follows the chain as printed. These are yes or no findings as the source states them, for the method shown. For part of these data: Binding seen in cells or lysates may run through a third protein. Some results given as binding are weak or reduced against the parent protein; the word gives no strength. Sequences can lack the tags named with a protein. Each block holds one binder with its values, some of them ahead of it.

What was measured:
[1] = molecular target: T1, BD-HRB1 (full-length Hypersensitive to Red and Blue 1 fused to the GAL4 DNA binding domain) (Arabidopsis thaliana) (UniProt Q9FJ17); experiment: two-hybrid; quantitative yeast two-hybrid assay (beta-galactosidase activity); baits in pGBKT7, preys in pGADT7; transformants selected on SD medium lacking Trp and Leu
T1 sequence: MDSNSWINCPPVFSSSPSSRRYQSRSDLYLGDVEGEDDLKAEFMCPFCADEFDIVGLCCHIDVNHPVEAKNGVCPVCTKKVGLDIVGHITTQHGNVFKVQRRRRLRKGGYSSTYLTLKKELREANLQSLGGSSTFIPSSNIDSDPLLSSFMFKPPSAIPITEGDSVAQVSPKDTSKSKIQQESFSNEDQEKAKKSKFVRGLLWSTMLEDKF

[2] = molecular target: T2, HRB1:GFP:His (Arabidopsis thaliana) (UniProt Q9FJ17); experiment: pull-down; His affinity-precipitation on nickel-agarose beads from extracts of co-infiltrated Nicotiana benthamiana leaves, in the dark or under 4.93 umol/m2/s blue light for 2 hours; 50 mM Tris-Cl pH 7.5, 150 mM NaCl, 10% glycerol, 0.5% NP40, 10 mM imidazole; PP7 detected with an anti-Myc antibody
T2 sequence: T1 sequence

[3] = molecular target: T3, GBD:HRB1 (HRB1 tagged with the GAL4 DNA binding domain, produced in E. coli) (Arabidopsis thaliana) (UniProt Q9FJ17); experiment: pull-down; in vitro immuno-precipitation: GBD or GBD:HRB1 from E. coli total extract captured with anti-GAL4 BD antibody on protein A/G agarose and washed, then incubated with in vitro translated 35S-labelled PP7 at 4 C for 2 hours; 1x PBS pH 7.5, 0.1% NP40; autoradiography; only the target …
T3 sequence: T1 sequence

B1: AD-PP7 (full-length Protein Phosphatase 7 fused to the GAL4 activation domain) (enzyme, UniProt Q9FN02 1-413)
chain: METVPPSPITWPDGGALTNDWVHGLMSCFEWSSWNLPPSQLPSLLPVNVFDSLVLTAHKILHKERNCVHIDDLDSVSNVVVVGDIHGQLHDLLFLLKDTGFPCQNRCYVFNGDYVDRGAWGLETFLVLLSWKVLMPDRVYLLRGNHESKYCTSMYGFEKEVLTKYGDKGKHVYRKCLGCFEGLPLASIISGRVYTAHGGLFRSPVLPKRTTRGKKNRRVVLLEPEPSSMKLGTLDELMQARRSVLDPPWEGSNLIPGDVLWSDPSMTPGLSPNEQRGIGLLWGPDCTEDFLKKYELKLIIRSHEGPDAREKRTGLGGMDNGYTIDHNVESGKLITIFSAPDYPQFQATEERYKNKGAYIILQAPDFSDPQFHSFEAVKPRPKAHPYYDFENVIDSDDEMDKSAMDTNNEQPNS
binding [1]: binds

B4: PP7 produced in a TnT in vitro transcription and translation system (enzyme, UniProt Q9FN02 1-413)
chain: B1 chain
modifications: radiolabeled with 35S-methionine
binding [3]: binds

B6: PP7-C70 (PP7 with the last 70 amino acids deleted, fused to the GAL4 activation domain) (domain or fragment, UniProt Q9FN02 1-343)
chain: METVPPSPITWPDGGALTNDWVHGLMSCFEWSSWNLPPSQLPSLLPVNVFDSLVLTAHKILHKERNCVHIDDLDSVSNVVVVGDIHGQLHDLLFLLKDTGFPCQNRCYVFNGDYVDRGAWGLETFLVLLSWKVLMPDRVYLLRGNHESKYCTSMYGFEKEVLTKYGDKGKHVYRKCLGCFEGLPLASIISGRVYTAHGGLFRSPVLPKRTTRGKKNRRVVLLEPEPSSMKLGTLDELMQARRSVLDPPWEGSNLIPGDVLWSDPSMTPGLSPNEQRGIGLLWGPDCTEDFLKKYELKLIIRSHEGPDAREKRTGLGGMDNGYTIDHNVESGKLITIFSAPDYP
binding [1]: binds

Next, values leading:

binding [2]: binds
B2: PP7:Myc (enzyme, UniProt Q9FN02 1-413)
chain: B1 chain

binding [1]: binds
B3: PP7m (PP7 with a D to A change at amino acid position 116, fused to the GAL4 activation domain) (enzyme, UniProt Q9FN02 1-413)
chain: B1 chain with D116A

binding [1]: binds
B5: PP7-N50 (PP7 with the first 50 amino acids deleted, fused to the GAL4 activation domain) (domain or fragment, UniProt Q9FN02 51-413)
chain: DSLVLTAHKILHKERNCVHIDDLDSVSNVVVVGDIHGQLHDLLFLLKDTGFPCQNRCYVFNGDYVDRGAWGLETFLVLLSWKVLMPDRVYLLRGNHESKYCTSMYGFEKEVLTKYGDKGKHVYRKCLGCFEGLPLASIISGRVYTAHGGLFRSPVLPKRTTRGKKNRRVVLLEPEPSSMKLGTLDELMQARRSVLDPPWEGSNLIPGDVLWSDPSMTPGLSPNEQRGIGLLWGPDCTEDFLKKYELKLIIRSHEGPDAREKRTGLGGMDNGYTIDHNVESGKLITIFSAPDYPQFQATEERYKNKGAYIILQAPDFSDPQFHSFEAVKPRPKAHPYYDFENVIDSDDEMDKSAMDTNNEQPNS
